Numbering of substitutions follows the chain as printed. No constants are given. Whether binding was seen depends on the method and setting. Some results given as binding are weak or reduced against the parent protein; the word gives no strength. Tags and fused reporters may be left off the sequences shown.
B1: wild-type V5-tagged neurturin (ligand)
chain: ARGKPIPNPLLGLDSTSGARLGARPCGLRELEVRVSELGLGYASDETVLFRYCAGACEAAARVYDLGLRRLRQRRRLRRERVRAQPCCRPTAYEDEVSFLDAHSRYHTVHELSARECACV
B2: V5-tagged neurturin variant NV3 (ligand)
chain: B1 chain with R70A, R72A, R74A, R76A, R79A
B3: V5-tagged neurturin variant NV4 (ligand)
chain: B1 chain with R69A, R72Q, Q73G, R74Q, R75G, R76A, R78V, R79G, E80S
B4: V5-tagged neurturin variant NV1 (ligand)
chain: B1 chain with R70A, R74A, R76A
B5: V5-tagged neurturin variant NV2 (ligand)
chain: B1 chain with R72A, R79A, R81A

biological target: T1, recombinant human GFRα2-Fc chimera (R&D Systems) (human) (UniProt O00451); assay: precipitation from CHO medium with GFRα2-Fc and Protein G-Sepharose, Western blot (results not shown)
T1 sequence (looked up): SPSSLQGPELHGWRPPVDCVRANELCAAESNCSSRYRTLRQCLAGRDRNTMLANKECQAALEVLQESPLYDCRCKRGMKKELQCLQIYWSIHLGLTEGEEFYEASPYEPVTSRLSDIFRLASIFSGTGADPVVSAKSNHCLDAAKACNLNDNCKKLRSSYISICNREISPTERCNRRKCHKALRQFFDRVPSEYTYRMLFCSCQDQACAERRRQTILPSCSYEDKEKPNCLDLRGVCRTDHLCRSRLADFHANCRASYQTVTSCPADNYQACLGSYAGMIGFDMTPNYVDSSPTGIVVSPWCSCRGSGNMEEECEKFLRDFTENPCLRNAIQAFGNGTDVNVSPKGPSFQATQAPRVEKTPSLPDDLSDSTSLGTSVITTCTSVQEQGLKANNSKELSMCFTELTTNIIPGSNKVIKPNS

binding, binds:
B1, B2, B3, B4, B5

Reference: patent EP2774935A1
